PubChem BioAssay AID1508597, Cure First | 2020

Aim: 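Survival screen with siRNA in ovarian cancer cells derived from patients, with or without rucaparib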 (primary screen)
Cell system: human ovarian carcinoma lines grown from tumours: OCI-P5x (papillary serous) and OCI-C5x (clear cell)
Reagent: siRNA pool against human genes, 1.25 pmol siRNA per well
Time to read-out: 72 h or 96 h, depending on the cell culture
Challenge: rucaparib 20 µM (about IC30) or vehicle, present until read-out
Measurement: 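Luminescent ATP-based viability assay read 72 or 96 h after transfection, depending on culture, given as normalised percent viability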
Direction: viability, normalised: higher = more viable cells remaining
Call rule: 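a well counts as a hit if its normalised viability is under 80 percent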
Calls: active = viability under 80%; inactive = viability 80% or more
This is an unselected part of about 2,100 deposited reagents. 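Calls flag viability under 80% in either arm, not effects specific to rucaparib; the reference for percent is not stated.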 Not given: the 100% reference.

With PLCG2 (phospholipase C gamma 2), rucaparib or vehicle Rucaparib, cell line OCI-C5x (clear cell), technical replicate 1, the entry reads viability, normalised (%) = 68.3; active. PLCG2 (phospholipase C gamma 2), rucaparib or vehicle Rucaparib, cell line OCI-C5x (clear cell), technical replicate 2 gave viability, normalised (%) = 68.2; active. PLCG2 (phospholipase C gamma 2), rucaparib or vehicle Rucaparib, cell line OCI-C5x (clear cell), technical replicate 3 gave viability, normalised (%) = 47.7; active. PLCG2 (phospholipase C gamma 2), rucaparib or vehicle Rucaparib, cell line OCI-P5x (serous), technical replicate 1 scored viability, normalised (%) = 67.4; active. PLCG2 (phospholipase C gamma 2), rucaparib or vehicle Rucaparib, cell line OCI-P5x (serous), technical replicate 2 gave viability, normalised (%) = 60; active. PLCG2 (phospholipase C gamma 2), rucaparib or vehicle Rucaparib, cell line OCI-P5x (serous), technical replicate 3 gave viability, normalised (%) = 64.1; active.

For PLCG2 (phospholipase C gamma 2), rucaparib or vehicle Vehicle, cell line OCI-C5x (clear cell), technical replicate 1, the entry reads viability, normalised (%) = 51.3; active. For PLCG2 (phospholipase C gamma 2), rucaparib or vehicle Vehicle, cell line OCI-C5x (clear cell), technical replicate 2, the entry reads viability, normalised (%) = 57.7; active. With PLCG2 (phospholipase C gamma 2), rucaparib or vehicle Vehicle, cell line OCI-C5x (clear cell), technical replicate 3 the deposit lists viability, normalised (%) = 58.8; active. PLCG2 (phospholipase C gamma 2), rucaparib or vehicle Vehicle, cell line OCI-P5x (serous), technical replicate 1 showed viability, normalised (%) = 79.6; active. For PLCG2 (phospholipase C gamma 2), rucaparib or vehicle Vehicle, cell line OCI-P5x (serous), technical replicate 2 the deposit lists viability, normalised (%) = 84.4; inactive. PLCG2 (phospholipase C gamma 2), rucaparib or vehicle Vehicle, cell line OCI-P5x (serous), technical replicate 3 showed viability, normalised (%) = 84.9; inactive.

With MARK2 (microtubule affinity regulating kinase 2), rucaparib or vehicle Rucaparib, cell line OCI-C5x (clear cell), technical replicate 1 the deposit lists viability, normalised (%) = 82.6; inactive. MARK2 (microtubule affinity regulating kinase 2), rucaparib or vehicle Rucaparib, cell line OCI-C5x (clear cell), technical replicate 2 scored viability, normalised (%) = 106; inactive. MARK2 (microtubule affinity regulating kinase 2), rucaparib or vehicle Rucaparib, cell line OCI-C5x (clear cell), technical replicate 3 gave viability, normalised (%) = 64.8; active. MARK2 (microtubule affinity regulating kinase 2), rucaparib or vehicle Rucaparib, cell line OCI-P5x (serous), technical replicate 1 scored viability, normalised (%) = 98.4; inactive. MARK2 (microtubule affinity regulating kinase 2), rucaparib or vehicle Rucaparib, cell line OCI-P5x (serous), technical replicate 2 showed viability, normalised (%) = 103; inactive. For MARK2 (microtubule affinity regulating kinase 2), rucaparib or vehicle Rucaparib, cell line OCI-P5x (serous), technical replicate 3, the entry reads viability, normalised (%) = 87; inactive.

MARK2 (microtubule affinity regulating kinase 2), rucaparib or vehicle Vehicle, cell line OCI-C5x (clear cell), technical replicate 1 showed viability, normalised (%) = 55.2; active. MARK2 (microtubule affinity regulating kinase 2), rucaparib or vehicle Vehicle, cell line OCI-C5x (clear cell), technical replicate 2 showed viability, normalised (%) = 47; active. With MARK2 (microtubule affinity regulating kinase 2), rucaparib or vehicle Vehicle, cell line OCI-C5x (clear cell), technical replicate 3 the deposit lists viability, normalised (%) = 31.9; active. For MARK2 (microtubule affinity regulating kinase 2), rucaparib or vehicle Vehicle, cell line OCI-P5x (serous), technical replicate 1, the values are viability, normalised (%) = 68; active. MARK2 (microtubule affinity regulating kinase 2), rucaparib or vehicle Vehicle, cell line OCI-P5x (serous), technical replicate 2 gave viability, normalised (%) = 63.4; active. MARK2 (microtubule affinity regulating kinase 2), rucaparib or vehicle Vehicle, cell line OCI-P5x (serous), technical replicate 3 showed viability, normalised (%) = 80.7; inactive.

EEF1E1 (eukaryotic translation elongation factor 1 epsilon 1), rucaparib or vehicle Rucaparib, cell line OCI-C5x (clear cell), technical replicate 1 scored viability, normalised (%) = 66.7; active. EEF1E1 (eukaryotic translation elongation factor 1 epsilon 1), rucaparib or vehicle Rucaparib, cell line OCI-C5x (clear cell), technical replicate 2 showed viability, normalised (%) = 51.2; active. EEF1E1 (eukaryotic translation elongation factor 1 epsilon 1), rucaparib or vehicle Rucaparib, cell line OCI-C5x (clear cell), technical replicate 3 gave viability, normalised (%) = 53.7; active. For EEF1E1 (eukaryotic translation elongation factor 1 epsilon 1), rucaparib or vehicle Rucaparib, cell line OCI-P5x (serous), technical replicate 1, the entry reads viability, normalised (%) = 115; inactive. For EEF1E1 (eukaryotic translation elongation factor 1 epsilon 1), rucaparib or vehicle Rucaparib, cell line OCI-P5x (serous), technical replicate 2, the values are viability, normalised (%) = 124; inactive. EEF1E1 (eukaryotic translation elongation factor 1 epsilon 1), rucaparib or vehicle Rucaparib, cell line OCI-P5x (serous), technical replicate 3 gave viability, normalised (%) = 107; inactive.

For EEF1E1 (eukaryotic translation elongation factor 1 epsilon 1), rucaparib or vehicle Vehicle, cell line OCI-C5x (clear cell), technical replicate 1, the values are viability, normalised (%) = 49.7; active. For EEF1E1 (eukaryotic translation elongation factor 1 epsilon 1), rucaparib or vehicle Vehicle, cell line OCI-C5x (clear cell), technical replicate 2 the deposit lists viability, normalised (%) = 85.3; inactive. EEF1E1 (eukaryotic translation elongation factor 1 epsilon 1), rucaparib or vehicle Vehicle, cell line OCI-C5x (clear cell), technical replicate 3 showed viability, normalised (%) = 40.9; active. With EEF1E1 (eukaryotic translation elongation factor 1 epsilon 1), rucaparib or vehicle Vehicle, cell line OCI-P5x (serous), technical replicate 1, the values are viability, normalised (%) = 103; inactive. With EEF1E1 (eukaryotic translation elongation factor 1 epsilon 1), rucaparib or vehicle Vehicle, cell line OCI-P5x (serous), technical replicate 2, the entry reads viability, normalised (%) = 97.6; inactive. EEF1E1 (eukaryotic translation elongation factor 1 epsilon 1), rucaparib or vehicle Vehicle, cell line OCI-P5x (serous), technical replicate 3 gave viability, normalised (%) = 95.6; inactive.

Part of the list above, set out differently.
{"target": "PLCG2 (phospholipase C gamma 2)", "rucaparib or vehicle": "Vehicle", "cell line": "OCI-C5x (clear cell)", "technical replicate": "3", "viability, normalised (%)": 58.8, "outcome": "active"}
{"target": "PLCG2 (phospholipase C gamma 2)", "rucaparib or vehicle": "Vehicle", "cell line": "OCI-P5x (serous)", "technical replicate": "1", "viability, normalised (%)": 79.6, "outcome": "active"}
{"target": "PLCG2 (phospholipase C gamma 2)", "rucaparib or vehicle": "Vehicle", "cell line": "OCI-P5x (serous)", "technical replicate": "2", "viability, normalised (%)": 84.4, "outcome": "inactive"}
{"target": "PLCG2 (phospholipase C gamma 2)", "rucaparib or vehicle": "Vehicle", "cell line": "OCI-P5x (serous)", "technical replicate": "3", "viability, normalised (%)": 84.9, "outcome": "inactive"}
{"target": "MARK2 (microtubule affinity regulating kinase 2)", "rucaparib or vehicle": "Rucaparib", "cell line": "OCI-C5x (clear cell)", "technical replicate": "1", "viability, normalised (%)": 82.6, "outcome": "inactive"}
